# In the supplement of paper PMC8104966:
# Some of the results follow. Single values are uncertain here, since repeats match poorly.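 U2OS cells carrying ACE2 were mixed with U2OS cells carrying full-length spike, and fusion was scored by imaging as the share of nuclei showing both cell types' fluorescent markers. A compound counts as an inhibitory hit when it is non-toxic and its fusion z-score falls below -3, meaning more than three standard deviations below the plate's DMSO wells.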
# Tested on: U2OS ACE2 x SARS-CoV-2 spike co-culture
# Test: cell-cell fusion (fraction fused) z-score vs plate DMSO control; higher = more fusion
# Settings: 30 µM; 5 h; toxicity class: non-toxic, passed QC
row,Structure (SMILES),cell-cell fusion (z-score)
1,C[C@@H]1O[C@@H](OC[C@H]2OC(Oc3c(-c4ccc(OCCO)c(OCCO)c4)oc4cc(OCCO)cc(O)c4c3=O)[C@H](O)[C@@H](O)[C@@H]2O)[C@H](O)[C@H](O)[C@H]1O (stereo partly drawn),inactive: 0.235
2,Cc1cc2c(F)c(Oc3ncnn4cc(OC[C@@H](C)OC(=O)[C@H](C)N)c(C)c34)ccc2[nH]1,inactive: -1.6
3,Cc1ccc(Nc2c(F)cccc2Cl)c(CC(=O)O)c1,inactive: 2.59
4,CCOc1nc2cccc(C(=O)O)c2n1Cc1ccc(-c2ccccc2-c2nn[nH]n2)cc1 [Candesartan],inactive: 1.47
5,[Li][Cl] [Lithium Chloride],inactive: 0.911
6,CO[C@H]1C[C@@H]2CC[C@@H](C)[C@@](O)(O2)C(=O)C(=O)N2CCCC[C@H]2C(=O)O[C@H]([C@H](C)C[C@@H]2CC[C@@H](OC(=O)C(C)(CO)CO)[C@H](OC)C2)CC(=O)[C@H](C)/C=C(\C)[C@@H](O)[C@@H](OC)C(=O)[C@H](C)C[C@H](C)/C=C/C=C/C=C/1C [Temsirolimus],inactive: 1.85
7,CCOC(=O)[C@H](CCc1ccccc1)N[C@@H](C)C(=O)N1Cc2cc(OC)c(OC)cc2C[C@H]1C(=O)O.Cl [Moexipril HCl],inactive: 1.78
8,CN1CCN(CC(=O)N2c3ccccc3C(=O)Nc3cccnc32)CC1.Cl.Cl,inactive: 2.34
9,Clc1ccc(CSC(Cn2ccnc2)c2ccc(Cl)cc2Cl)cc1.O=[N+]([O-])O (stereo not drawn),inactive: 2.48
10,O.O.O.O.O=C([O-])CC(O)(CC(=O)[O-])C(=O)[O-].[Li+].[Li+].[Li+] [Lithium citrate tribasic tetrahydrate],inactive: 2.37
11,Cc1cc(C)nc(NS(=O)(=O)c2ccc(NC(=S)NC(=O)COc3ccc(Br)cc3Cl)cc2)n1,inactive: 0.295
12,COc1ccc(C(=O)/C=C/c2ccccc2)cc1,inactive: 2
13,N[C@@H](CC(=O)N1CCn2c(nnc2C(F)(F)F)C1)Cc1cc(F)c(F)cc1F.O.O=P(O)(O)O,inactive: 2.73
14,CCCCOc1cc(CC2CNC(=O)N2)ccc1OC (stereo not drawn),inactive: 2.2
15,O=C1C=C2CC3(O)COc4c(ccc(O)c4O)C3=C2C=C1O (stereo not drawn),inactive: 2.3
16,Cc1scc2c1N(C(=O)CN1CCN(C)CC1)c1ccccc1NC2=O.Cl.Cl [Telenzepine dihydrochloride],inactive: 1.3
17,CCN(CC)CCOC(=O)C1(C2CCCCC2)CCCCC1.Cl,inactive: 2.28
18,CCN(CC)CCOC(=O)C1(C2CCCCC2)CCCCC1.Cl [Dicyclomine hydrochloride],inactive: 4.94
19,CCc1c(Cl)c(O)c(Cl)c(O)c1C(=O)O[C@H]1[C@H](O)[C@H](OC)[C@H](OC/C2=C\C=C\C[C@H](O)/C(C)=C/[C@H](CC)[C@@H](O[C@@H]3OC(C)(C)[C@@H](OC(=O)C(C)C)[C@H](O)[C@@H]3O)/C(C)=C/C(C)=C/C[C@@H]([C@@H](C)O)OC2=O)O[C@@H]1C [Fidaxomicin],inactive: -2.37
20,CC(C)=CCc1c(O)cc2oc(C)cc(=O)c2c1O,inactive: 2.38
21,CS(=O)(=O)N1CCN(Cc2cc3nc(-c4cccc5[nH]ncc45)nc(N4CCOCC4)c3s2)CC1,inactive: 0.587
22,O=C(/C=C/c1ccc(O)cc1)c1ccc(O)cc1O,inactive: 0.988
23,O=C(/C=C/c1ccc(O)cc1)c1ccc(O)cc1O [Isoliquiritigenin],inactive: 0.546

row,Structure (SMILES),cell-cell fusion (z-score)
1,CCN(Cc1ccncc1)C(=O)C(CO)c1ccccc1 (stereo not drawn),inactive: 1.28
2,CCN(Cc1ccncc1)C(=O)C(CO)c1ccccc1 (stereo not drawn) [Tropicamide],inactive: 1.17
3,COC(=O)[C@H]1[C@H]2C[C@H]3c4[nH]c5cc(OC)ccc5c4CCN3C[C@H]2C[C@@H](OC(=O)c2cc(OC)c(OC)c(OC)c2)[C@@H]1OC,inactive: -1.81
4,C[C@]12CCC3c4ccc(OC(=O)c5ccccc5)cc4CCC3C1CC[C@@H]2O (stereo partly drawn),inactive: 2.47
5,C[N+](C)(C)CCCCCC[N+](C)(C)C.[Cl-].[Cl-] [Hexamethonium dichloride],inactive: 2.06
6,CCn1nc(C(=O)O)c(=O)c2cc3c(cc21)OCO3 [Cinoxacin],inactive: 1.95
7,CCn1nc(C(=O)O)c(=O)c2cc3c(cc21)OCO3,inactive: 0.284
8,NCCCNCCSP(=O)(O)O [Amifostine],inactive: 1.35
9,Cc1cn([C@@H]2C[C@@H](O)[C@H](CO)O2)c(=O)[nH]c1=O [Telbivudine],inactive: 0.55
10,O=C([O-])CCCc1ccccc1.[Na+] [Sodium Phenylbutyrate],inactive: 2.51
11,CC(=O)CCCCn1c(=O)c2c(ncn2C)n(C)c1=O [Pentoxifylline],inactive: 2.44
12,Cc1ccc(Cl)c(Nc2ccccc2C(=O)[O-])c1Cl.[Na+],inactive: 0.941
13,CC1=C(/C=C/C(C)=C/C=C/C(C)=C/C(=O)Nc2ccc(O)cc2)C(C)(C)CCC1 [Fenretinide],inactive: 0.866
14,COc1ccc(-c2oc3cc(OC)ccc3c2C(=O)c2ccc(C#N)cc2)cc1,inactive: 1.25
15,CCCCC#Cc1nc(NC)c2ncn([C@@H]3O[C@H](CO)C(O)[C@@H]3O)c2n1 (stereo partly drawn),inactive: 0.811
16,CCN[C@H]1C[C@H](C)S(=O)(=O)c2sc(S(N)(=O)=O)cc21.Cl [Dorzolamide hydrochloride],inactive: 0.783
17,C[N+]1(C)CCc2cc3c(cc2[C@H]1C1OC(=O)c2c1ccc1c2OCO1)OCO3.[I-] (stereo partly drawn),inactive: 1.93
18,Cn1c(=O)c2[nH]cnc2n(C)c1=O [Theophylline],inactive: 3.26
19,Nc1nc(Nc2ccccc2)nc2c1ncn2[C@@H]1O[C@H](CO)[C@H](O)C1O (stereo partly drawn) [2-Phenylaminoadenosine],inactive: -0.92
20,OC(CCN1CCCCC1)(c1ccccc1)C1CC2C=CC1C2 (stereo not drawn),inactive: 1.33
21,COc1ccc(CN2CCNCC2)c(OC)c1OC.Cl.Cl,inactive: 0.744
22,COc1cc2ncnc(Oc3cccc(NC(=O)Nc4cc(C(C)(C)C(F)(F)F)on4)c3)c2cc1OC,inactive: 0.267
23,NS(=O)(=O)c1nn2cc(-c3ccccc3)nc2s1,inactive: 1.85

# In a second layout: results already given
row | Structure (SMILES) | cell-cell fusion (z-score)
14 | CCCCOc1cc(CC2CNC(=O)N2)ccc1OC (stereo not drawn) | inactive: 2.2
15 | O=C1C=C2CC3(O)COc4c(ccc(O)c4O)C3=C2C=C1O (stereo not drawn) | inactive: 2.3
16 | Cc1scc2c1N(C(=O)CN1CCN(C)CC1)c1ccccc1NC2=O.Cl.Cl [Telenzepine dihydrochloride] | inactive: 1.3

# Further records.

row,Structure (SMILES),cell-cell fusion (z-score)
1,CC(=O)O[C@H]1CC[C@]2(C)C3CC[C@@]4(C)C(CC5O[C@@]6(CCC(C)CO6)[C@@H](C)C54)C3CC[C@@H]2C1 (stereo partly drawn),inactive: 2.74
2,C[C@]12CCC(=O)C=C1CCC1C2CC[C@@]2(C)C1CC[C@@H]2O (stereo partly drawn),inactive: 1.49
3,CN(C)CCOC(c1ccccc1)c1ccccc1.Cn1c(=O)c2[nH]c(Cl)nc2n(C)c1=O [Dimenhydrinate],inactive: 1.45
4,CN(C)c1cc(NC(=O)CNC(C)(C)C)c(O)c2c1C[C@H]1C[C@H]3[C@H](N(C)C)C(O)=C(C(N)=O)C(=O)[C@@]3(O)C(O)=C1C2=O.O [Tigecycline],inactive: 2.58
5,O=C(O)c1cccnc1,inactive: 2.51
6,C[C@@H]1CC2C3CCC4=CC(=O)C=C[C@]4(C)[C@@]3(F)[C@@H](O)C[C@]2(C)[C@@]1(O)C(=O)COP(=O)([O-])[O-].[Na+].[Na+] (stereo partly drawn),inactive: 1.44
7,O=NN(CCCl)C(=O)NCCCl [Carmustine],inactive: 1.37
8,Cc1ccsc1/C=C/C1=NCCCN1C.O=C(O)CC(O)(CC(=O)O)C(=O)O,inactive: 3.47
9,CC(C)Oc1cccnc1N(C)C1CCN(Cc2ccccc2)CC1.O=C(O)/C=C\C(=O)O,inactive: 1.11
10,NC[C@H]1O[C@H](OC2[C@@H](N)C[C@@H](N)[C@H](O[C@H]3O[C@H](CO)[C@@H](O)[C@H](N)[C@H]3O)[C@H]2O)[C@H](O)[C@@H](O)[C@@H]1O.O=S(=O)(O)O (stereo partly drawn),inactive: 2.29
11,CC12CCC3C(=CCc4cc(O)ccc43)C1CCC2=O (stereo not drawn),inactive: 1.48
12,Cc1ncc(CO)c(CO)c1O [Pyridoxine],inactive: 2.16
13,"CCCC[N+]1(C)C2CC(OC(=O)[C@H](CO)c3ccccc3)CC1C1OC12.[Br-] (single isomer, unassigned; (-)) [(-)-Scopolamine,n-Butyl-, bromide]",inactive: 1.2
14,Cc1cc(C)cc(OCC2CNC(=O)O2)c1 (stereo not drawn) [Metaxalone],inactive: 2.76
15,COc1ccc(NC(=O)c2ccc(C(=N)N(C)C)cc2)c(C(=O)Nc2ccc(Cl)cn2)c1.O=C(O)/C=C\C(=O)O [Betrixaban maleate],inactive: -1.16
16,CN1C2CCC1CC(OC(=O)c1c[nH]c3ccccc13)C2.Cl (stereo not drawn),inactive: 2.21
17,CN1C2CCC1CC(OC(=O)c1c[nH]c3ccccc13)C2.Cl (stereo not drawn) [3-Tropanyl-indole-3-carboxylate hydrochloride],inactive: 0.347
18,O=C1CCc2cc(OCCCCc3nnnn3C3CCCCC3)ccc2N1,inactive: 2.26
19,CCC1(c2ccccc2)C(=O)NCNC1=O [Primidone],inactive: 3.15
20,CCOc1nc2cccc(C(=O)OC(C)OC(=O)OC3CCCCC3)c2n1Cc1ccc(-c2ccccc2-c2nnn[nH]2)cc1 (stereo not drawn),inactive: 0.0899
21,CC(=O)OC1CN2CCC1CC2 (stereo not drawn),inactive: 1.6
22,COc1cc(C)c(C(=O)Oc2cc(C)c(C(=O)O)c(O)c2C)c(OC)c1C,inactive: 2.73

# 2 entries picked at random from those above, as already listed:
row,Structure (SMILES),cell-cell fusion (z-score)
14,CCCCOc1cc(CC2CNC(=O)N2)ccc1OC (stereo not drawn),inactive: 2.2
12,COc1ccc(C(=O)/C=C/c2ccccc2)cc1,inactive: 2
